# Test results reported in the supplement of paper PMC12823440, “Inhibitors supercharge kinase turnover through native proteolytic circuits” (Nature, 2025).
# Sequences of proteins named here, by UniProt entry; tags and fusion partners are left off.
# UniProt Q00535, whole entry, looked up: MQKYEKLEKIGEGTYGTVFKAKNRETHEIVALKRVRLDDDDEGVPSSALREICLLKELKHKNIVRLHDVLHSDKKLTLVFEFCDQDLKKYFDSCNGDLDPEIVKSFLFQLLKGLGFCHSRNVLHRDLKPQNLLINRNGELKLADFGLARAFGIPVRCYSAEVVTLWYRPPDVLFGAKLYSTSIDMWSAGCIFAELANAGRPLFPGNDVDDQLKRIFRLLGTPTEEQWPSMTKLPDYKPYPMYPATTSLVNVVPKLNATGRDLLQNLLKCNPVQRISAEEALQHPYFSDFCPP
# Counter-ions that a name gives are not always drawn. This is one part of the list. Hit calls seldom repeat between salt and free forms of one compound.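 In K562 cells expressing nanoluciferase-fused kinases, luminescence was recorded at 4 h intervals between 2 and 18 h, normalized as percent of control with DMSO at 100% and a positive control at 0%. A significant (2 sigma) signal drop marks a time point as decreased. The authors' rule for a hit is not shown and takes in more than the number of time points.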
# Target: CDK5 (UniProt Q00535)
# Assay: number of time points (of 5) at which kinase-Nluc abundance scored as decreased, DMSO-normalised (count); higher = more persistent destabilization
# Conditions: K562; 2-18 h
row,Structure (SMILES),number of time points
1,C[C@@H]1CCN(C(=O)CC#N)C[C@@H]1N(C)c1ncnc2[nH]ccc12 [Tofacitinib] (10 µM),0
2,CC#CC(=O)N1CC[C@@H](n2c(=O)n(-c3ccc(Oc4ccccc4)cc3)c3c(N)ncnc32)C1 [Tirabrutinib (hydrochloride)] (10 µM),0
3,Cc1ccc(C(=O)Nc2ccc(Oc3cc4cnn(C)c4cc3-c3cn[nH]c3)c(F)c2)c(=O)n1-c1ccc(F)cc1 [Merestinib] (2.5 µM),0
4,Cc1cc(Nc2ncnc3ccc(NC4=NC(C)(C)CO4)cc23)ccc1Oc1ccn2ncnc2c1 [Tucatinib (hemiethanolate)] (2.5 µM),0
5,C[C@@]1(c2ncncc2F)NC(=O)c2cc(-c3cn[nH]c3)ccc21 (10 µM),0
6,COc1cc(Nc2ncc(F)c(Nc3ccc4c(n3)NC(=O)C(C)(C)O4)n2)cc(OC)c1OC (10 µM),0
7,Cc1cc2ncc(-c3ccc(O)c(O)c3)nc2cc1C [Tyrphostin AG1433] (10 µM),0
8,C=CC(=O)Nc1cccc(Nc2nc(Nc3ccc(N4CCN(C(C)=O)CC4)cc3OC)ncc2C(F)(F)F)c1 [Rociletinib hydrobromide] (10 µM),0
9,Cc1cc(Nc2ncnc3ccc(NC4=NC(C)(C)CO4)cc23)ccc1Oc1ccn2ncnc2c1 [Tucatinib] (2.5 µM),0
10,CCc1cc2c(cc1N1CCC(N3CCOCC3)CC1)C(C)(C)c1[nH]c3cc(C#N)ccc3c1C2=O [Alectinib (Hydrochloride)] (2 µM),0
11,Cn1nccc1Nc1nccc(-c2ccn([C@H](CO)c3ccc(Cl)c(F)c3)c(=O)c2)n1 [Ravoxertinib hydrochloride] (10 µM),0
12,COc1cc2c(N3CCN(C(=O)Nc4ccc(OC(C)C)cc4)CC3)ncnc2cc1OCCCN1CCCCC1 [Tandutinib] (10 µM),0
13,CC#CC(=O)N1CC[C@@H](n2c(=O)n(-c3ccc(Oc4ccccc4)cc3)c3c(N)ncnc32)C1 [Tirabrutinib] (10 µM),0
14,C=CC(=O)Nc1cccc(Nc2nc(Nc3ccc(N4CCN(C(C)=O)CC4)cc3OC)ncc2C(F)(F)F)c1 [Rociletinib] (10 µM),0
15,COc1cc(Nc2ncc(F)c(Nc3ccc4c(n3)N(COP(=O)(O)O)C(=O)C(C)(C)O4)n2)cc(OC)c1OC [Fostamatinib Disodium] (10 µM),0
16,COc1cc2c(N3CCN(C(=O)Nc4ccc(OC(C)C)cc4)CC3)ncnc2cc1OCCCN1CCCCC1 [Tandutinib (hydrochloride)] (10 µM),0
17,COc1cc(Nc2ncc(F)c(Nc3ccc4c(n3)N(COP(=O)(O)O)C(=O)C(C)(C)O4)n2)cc(OC)c1OC [Fostamatinib (disodium hexahydrate)] (10 µM),0
18,COc1cc2nccc(Oc3ccc(NC(=O)NC4CC4)c(Cl)c3)c2cc1C(N)=O [Lenvatinib (mesylate)] (10 µM),0
19,Oc1ccc(Nc2nc(-c3ccc(Cl)cc3)cs2)cc1 (10 µM),0
20,NC(=O)c1nc(Nc2ccccc2)sc1NC(=O)C1CCCCC1 (10 µM),0

# Quoted from the listing:
# C[C@@]1(c2ncncc2F)NC(=O)c2cc(-c3cn[nH]c3)ccc21 (10 µM) – number of time points: 0
# COc1cc2nccc(Oc3ccc(NC(=O)NC4CC4)c(Cl)c3)c2cc1C(N)=O [Lenvatinib (mesylate)] (10 µM) – number of time points: 0
# Cn1nccc1Nc1nccc(-c2ccn([C@H](CO)c3ccc(Cl)c(F)c3)c(=O)c2)n1 [Ravoxertinib hydrochloride] (10 µM) – number of time points: 0

# Additional entries.

row,Structure (SMILES),number of time points
1,CC1=C(C(=O)O)N2C(=O)[C@@H](NC(=O)[C@H](N)C3=CCC=CC3)[C@H]2SC1 [Cephradine] (10 µM),0
2,Cc1ccc(C(=O)Nc2ccc(Oc3cc4cnn(C)c4cc3-c3cn[nH]c3)c(F)c2)c(=O)n1-c1ccc(F)cc1 [Merestinib dihydrochloride] (2.5 µM),0
3,Cc1ccc2nc(NCCN)c3ncc(C)n3c2c1 (2.5 µM),0
4,CC(=O)NC1CC(n2cnc(NC(=O)Cc3ccc4ccccc4c3)c2)C1 (centres undefined) (10 µM),0
5,COc1cc2nccc(Oc3ccc(NC(=O)NC4CC4)c(Cl)c3)c2cc1C(N)=O [Lenvatinib] (10 µM),0
6,Cn1cnc2c(F)c(Nc3ccc(Br)cc3Cl)c(C(=O)NOCCO)cc21 [Selumetinib (sulfate)] (10 µM),0
7,CCN1CCN(Cc2ccc(Nc3ncc(F)c(-c4cc(F)c5nc(C)n(C(C)C)c5c4)n3)nc2)CC1 [Abemaciclib] (2 µM),0
8,C[C@@H]1CCN(C(=O)CC#N)C[C@@H]1N(C)c1ncnc2[nH]ccc12 [Tofacitinib (citrate)] (10 µM),0
9,Cn1nccc1Nc1nccc(-c2ccn([C@H](CO)c3ccc(Cl)c(F)c3)c(=O)c2)n1 [Ravoxertinib] (10 µM),0
10,COc1cc(Nc2ncc(F)c(Nc3ccc4c(n3)NC(=O)C(C)(C)O4)n2)cc(OC)c1OC [R406 (free base)] (10 µM),0
11,S=C(SSC(=S)N1CCOCC1)N1CCOCC1 (10 µM),0
12,CC1CCc2c(cc(Br)c(F)c2Br)N1C=O (centres undefined) (10 µM),0
13,Cc1[nH]c(/C=C2\C(=O)Nc3ccccc32)c(C)c1CCC(=O)O [(Z)-Orantinib] (10 µM),0
14,CCN1CCN(Cc2ccc(Nc3ncc(F)c(-c4cc(F)c5nc(C)n(C(C)C)c5c4)n3)nc2)CC1 [Abemaciclib (methanesulfonate)] (10 µM),0
15,Cn1cnc2c(F)c(Nc3ccc(Br)cc3Cl)c(C(=O)NOCCO)cc21 [Selumetinib] (10 µM),0
16,CCc1cc2c(cc1N1CCC(N3CCOCC3)CC1)C(C)(C)c1[nH]c3cc(C#N)ccc3c1C2=O [Alectinib] (10 µM),0
17,C=C(CC[C@@H](C(=O)O)[C@H]1[C@H](O)C[C@@]2(C)C3=C(CC[C@]12C)[C@@]1(C)CC[C@H](OC(C)=O)C(C)(C)[C@@H]1CC3)C(C)C [Pachymic acid] (10 µM),0
18,Cc1[nH]c(/C=C2\C(=O)Nc3ccccc32)c(C)c1CCC(=O)O [Orantinib] (10 µM),0
19,C=CC(=O)Nc1ccc(CN2C(=O)N(c3cc(OC)cc(OC)c3)Cc3cnc(Nc4ccc(N5CCN(C)CC5)cc4)nc32)cc1 (2.5 µM),0
